{"source": "patent US8435976B2", "about": "“4-substituted pyridin-3-yl-carboxamide compounds and methods of use” (F. Hoffmann-La Roche, priority 2009, dated 2013)", "tested_on": "LuCap96.1 human prostate tumor cell xenografts", "assay": "LuCap96.1 human prostate tumor xenograft", "type": "in vivo, SCID-beige mice", "details": "Formula A 75 mg/kg po qd, day 38 vs vehicle", "note": "Some results were stated once for a whole list of compounds, not compound by compound.", "data": [{"smiles": "CS(=O)(=O)N1CCN(Cc2cc3nc(-c4cccc5[nH]ncc45)nc(N4CCOCC4)c3s2)CC1", "note": "[Formula A, 4-(2-(1H-indazol-4-yl)-6-((4-(methylsulfonyl)piperazin-1-yl)methyl)thieno[3,2-d]pyrimidin-4-yl)morpholine, reference compound]", "values": [{"measurement": "tumor growth inhibition (TGI)", "result": "60-70%"}]}]}
